Test results as given in publication PMC2731838.
No constants are given. Whether binding was seen depends on the method and setting. Binding calls can cover weak binding; strength is not graded here.

Experiments:
Assay in all cases: two-hybrid; genome-wide array-based matrix screen, all against all; baits in pGBKT7-DEST (yeast Y187), preys in pGADT7-DEST (AH109); mated, 4 replicas, selection on SD -leu-trp-his; positive if at least 3 out of 4 colonies grew
[1] = molecular target: T1, EBV BFLF2 (Epstein-Barr virus (EBV)) (UniProt P0CK47)
T1 sequence: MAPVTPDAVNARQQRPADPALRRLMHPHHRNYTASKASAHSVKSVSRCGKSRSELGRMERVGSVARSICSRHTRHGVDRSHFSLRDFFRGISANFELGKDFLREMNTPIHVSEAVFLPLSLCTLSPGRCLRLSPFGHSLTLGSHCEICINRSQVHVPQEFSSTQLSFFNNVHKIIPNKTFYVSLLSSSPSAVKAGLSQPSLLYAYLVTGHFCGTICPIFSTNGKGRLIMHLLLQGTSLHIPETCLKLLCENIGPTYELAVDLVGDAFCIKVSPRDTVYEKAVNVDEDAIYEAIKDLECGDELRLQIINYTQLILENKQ

[2] = molecular target: T2, EBV smallest capsid protein (ortholog of mCMV m48.2) (Epstein-Barr virus (EBV)) (UniProt P14348)
T2 sequence: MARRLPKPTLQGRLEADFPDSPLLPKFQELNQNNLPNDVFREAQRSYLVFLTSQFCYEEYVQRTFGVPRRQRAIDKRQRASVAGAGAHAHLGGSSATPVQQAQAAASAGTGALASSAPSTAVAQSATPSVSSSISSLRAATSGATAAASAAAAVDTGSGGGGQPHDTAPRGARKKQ

[3] = molecular target: T3, EBV ortholog of HSV-1 UL16 (Epstein-Barr virus (EBV)) (UniProt P0CK53)
T3 sequence: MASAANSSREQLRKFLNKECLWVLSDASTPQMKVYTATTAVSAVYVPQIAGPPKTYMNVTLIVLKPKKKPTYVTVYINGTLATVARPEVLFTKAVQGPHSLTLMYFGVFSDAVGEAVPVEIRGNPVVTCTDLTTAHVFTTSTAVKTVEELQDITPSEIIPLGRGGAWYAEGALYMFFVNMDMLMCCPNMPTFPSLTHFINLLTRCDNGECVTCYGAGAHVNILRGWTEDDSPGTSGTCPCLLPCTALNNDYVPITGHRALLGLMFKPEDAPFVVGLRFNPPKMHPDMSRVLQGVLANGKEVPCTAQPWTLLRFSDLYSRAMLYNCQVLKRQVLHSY

Row | Substance | binding [1] | binding [2] | binding [3]
1 | EBV BFRF4 (Epstein-Barr virus (EBV)) | binds | binds | –
2 | EBV ortholog of HSV-1 UL11 (Epstein-Barr virus (EBV)) | – | – | binds
